Test results as given in paper PMC8368002, “Crystal structure of the INTS3/INTS6 complex reveals the functional importance of INTS3 dimerization in DSB repair” (Cell Discovery, 2020).

Columns and labels:
[1] = system: INTS3(1-995) del791-831 + hSSB1; assay: EMSA; details: 1 mM MgCl2, reduced vs INTS3(1-995)/hSSB1; EMSA: 50 mM NaCl, 20 mM HEPES pH 7.5, 1 mM MgCl2, 0.5 mM EDTA, 0.2 mM DTT, on ice 1 h; recombinant protein; single-stranded DNA
[2] = system: INTS3(1-995) del832-872 + hSSB1; assay: EMSA; details: 1 mM MgCl2, reduced vs INTS3(1-995)/hSSB1; EMSA: 50 mM NaCl, 20 mM HEPES pH 7.5, 1 mM MgCl2, 0.5 mM EDTA, 0.2 mM DTT, on ice 1 h; recombinant protein; single-stranded DNA

Question: Does “TTTTTTTTTTTTTTTTTTTTTTTTTTTTTTTTTTTTTTTTTTTTTTTT [dT48 (FAM)]” bind [1]?
Answer: binds more weakly

Question: Does “TTTTTTTTTTTTTTTTTTTTTTTTTTTTTTTTTTTTTTTTTTTTTTTT [dT48 (FAM)]” bind [2]?
Answer: binds more weakly

The comparison behind a weaker result is the experiment's own reference, which may not be listed here.
